Source: the supplement of paper PMC12009310
Structures can show the parent of a compound that is named as a salt. ± gives the standard deviation of the averaged measurements. Some of the results follow. Part of the spread comes from offsets between plates or batches.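 The cells are a mouse kidney inner medullary collecting duct line, silenced either for the ciliary gene Rpgrip1l or with a non-targeting control siRNA.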

How the values were obtained:
mIMCD3 [1] = assay: robust z score of cell number vs plate controls; higher = more cells (less cytotoxic); settings: 10 µM, 48 h
mIMCD3 [2] = assay: robust z score of cilia incidence (% cells with single cilium) vs plate controls; higher = more ciliated cells; settings: 10 µM; 48 h; siRNA: siScr
mIMCD3 [3] = assay: robust z score of cilia incidence (% cells with single cilium) vs plate controls; higher = more ciliated cells (rescue of cilia loss); settings: 10 µM; 48 h; siRNA: siRpgrip1l

Compound	robust z score of cell number (mIMCD3 [1]; siRNA: siRpgrip1l)	robust z score of cell number (mIMCD3 [1]; siRNA: siScr)	robust z score of cilia incidence (mIMCD3 [2])	robust z score of cilia incidence (mIMCD3 [3])
N=C(N)NN [Aminoguanidine hydrochloride]	-3.59 ± 0.093	-0.393 ± 2.2	0.467 ± 0.69	-5.35 ± 1.2
C[N+](C)(C)CC#CCN1CCCC1=O [Oxotremorine M]	0.819 ± 4.8	-4.44 ± 0.29	5.02 ± 6.2	-9.93 ± 6.1
Cc1nc(N)sc1CCN [Amthamine dihydrobromide]	-5.18 ± 8.2	8.48 ± 6.9	0.464 ± 2.4	-6.26 ± 7.3
O=C1/C(=C/c2ccccc2)C[C@@]2(O)[C@H]3Cc4ccc(O)c5c4[C@@]2(CCN3CC2CC2)[C@H]1O5 [BNTX maleate]	-30.66 ± 0.27	-29.6 ± 15	-45.9 ± 8.3	-27.5 ± 4.9
CN1CC[C@@H]2CN3CCc4cccc(c43)[C@@H]2C1 [SDZ SER 082 fumarate]	-25.6 ± 11	-2.72 ± 0.61	-6.26 ± 4.6	-11.7 ± 2.4
CC(=O)[C@H]1CC[C@H]2[C@@H]3CC[C@H]4C[C@](C)(O)CC[C@]4(C)[C@H]3CC[C@]12C [Ganaxolone]	-12.3 ± 7.6	-44.8 ± 37	-4.09 ± 2.2	-20.1 ± 1.4
O=C(O)c1ccc2[nH]cc(CCCCN3CC=C(c4ccccc4)CC3)c2c1 [Carmoxirole hydrochloride]	-4.82 ± 5.9	-11.2 ± 14	-6.93 ± 2.5	-23 ± 18
CCCN1CCC[C@@H]2Cc3n[nH]cc3C[C@H]21 [(-)-Quinpirole hydrochloride]	-8.03 ± 0.23	1.38 ± 1.3	-0.168 ± 1.5	-14.1 ± 3.5
CC(=O)NCCc1c[nH]c2ccccc12 [N-Acetyltryptamine]	-8.93 ± 11	-2.77 ± 15	1.26 ± 1.7	-7.25 ± 6.3
C[C@H](Cc1ccc(OCC(=O)O)cc1)NC[C@H](O)c1cccc(Cl)c1	-3.02 ± 2.2	-1.34 ± 0.21	-4.49 ± 4.3	-9.19 ± 1

Reformatted: entries from further up.
Compound,robust z score of cell number (mIMCD3 [1]; siRNA: siRpgrip1l),robust z score of cell number (mIMCD3 [1]; siRNA: siScr),robust z score of cilia incidence (mIMCD3 [2]),robust z score of cilia incidence (mIMCD3 [3])
CN1CC[C@@H]2CN3CCc4cccc(c43)[C@@H]2C1 [SDZ SER 082 fumarate],-25.6 ± 11,-2.72 ± 0.61,-6.26 ± 4.6,-11.7 ± 2.4
CCCN1CCC[C@@H]2Cc3n[nH]cc3C[C@H]21 [(-)-Quinpirole hydrochloride],-8.03 ± 0.23,1.38 ± 1.3,-0.168 ± 1.5,-14.1 ± 3.5
